According to the supplement of paper PMC4683952:
The other results are listed elsewhere or left out. Rule as the data show it: active = 2 or more and inactive = the rest. Repeats in this data set agree poorly, so a single value says little.

test system: Lgr5 (MarsCy1-Lgr5-EGFP, U2OS); assay: cell-surface Lgr5 expression (SCi1 fluorescence, background-subtracted) relative to WT DMSO (fold of DMSO control); higher = more Lgr5 at the plasma membrane; conditions: U2OS MarsCy1-Lgr5-EGFP stable; treatment time: overnight; library: ActiProbe-5K (TimTec); 25 µM

cell-surface Lgr5 expression, inactive:
COC(=O)C1C(=O)Oc2ccc3ccccc3c2C1C1CCOC1=O (configuration not stated) 1.26, c1ccc2c(c1)-c1ccccc1C2Sc1nc2ccccc2s1 1.36, O=C(Nc1nnc(C2CCCCC2)s1)C1CC1 1.43, COCc1n[nH]c2c1C(c1cccs1)C(C#N)=C(N)O2 (configuration not stated) 1.32, N#CC1=C(N)SC(N)=C(C#N)C1c1ccco1 1.17, CC(=O)Nc1nnc(CC(C)(C)C)s1 1.32, C=CCN(CC=C)C(=O)c1cccs1 1.09, O=c1nc2sccn2c2ccc([N+](=O)[O-])cc12 0.926, O=C(NCCN1CCOCC1)N1CCOCC1 1.06, Oc1nc2cc3ccccc3cc2nc1C(F)(F)F 1.02, Brc1ccc2c(c1)-c1cc(Br)ccc1C2 1.51, O=c1[nH]c2ccc(/N=C\c3ccc4c(c3)OCO4)cc2[nH]1 1.03, CC(=O)OCC1OC(n2ccc(O)nc2=S)C(OC(C)=O)C1OC(C)=O (configuration not stated) 1.23, N#Cc1ccc2c(c1)COC2c1ccc(F)cc1 (configuration not stated) 1.27, O=c1[nH]c2cncc(Br)c2[nH]1 1.08, O=C(NCCCN1CCOCC1)C1CC2CCC1C2 (configuration not stated) 1.38, Nc1nnc(SCc2csc(C=O)c2)s1 1.08, O=[N+]([O-])c1ccccc1-n1ccnc1 1.41, O=C1C(Nc2ccc(Br)cn2)=C([n+]2ccccc2)C(=O)N1c1ccccc1.[Cl-] 1.29, O=C(O)C1CCCN1S(=O)(=O)c1cccs1 (configuration not stated) 1.44, COc1ccc(C2=Nn3c(nnc3-c3ccccc3OC)SC2)cc1OC 1.26, Cn1cc(S(=O)(=O)N2CCN(C(=O)C3CCN(S(C)(=O)=O)CC3)CC2)cn1 1.21, O=c1[nH]cc(CO)c(=O)[nH]1 1.33, CC1(C)OCC(C23OC(C)(C)C2(C2COC(C)(C)O2)O3)O1 (configuration not stated) 1.16, Cc1sc2ncn(C(C)C(=O)OC3CCCCC3)c(=O)c2c1C (configuration not stated) 1.21, CCCCCCCC1CC(C(C)(C)C)CC/C1=N\NC(N)=O (configuration not stated) 1.24, NC1=Nc2nc3ccccc3n2C(c2c[nH]c3ccc(F)cc23)N1 (configuration not stated) 1.34, O=c1cnn(C2OC(CO)C(O)C2O)c(=S)[nH]1 (configuration not stated) 1.17, CCCCCCCSc1nc2c(c(=O)[nH]c(=O)n2C)n1CCCCCCC 1.15, CC1=C(C(=O)OC(C)C)C(C2CC=CCC2)NC(=O)N1 (configuration not stated) 1.2, CC(C)(C)c1cc(S)cc(C(C)(C)C)c1O 1.24, S=C(c1ccco1)N1CCOCC1 1.08, c1ccc2c(c1)OC1c3ccccc3OC3c4ccccc4OC2N31 (configuration not stated) 0.992, O=c1c2c3c(sc2ncn1Cc1ccon1)CCC3 1.11, CCCc1[nH]nc2c1C(c1ccc(Br)s1)C(C#N)=C(N)O2 (configuration not stated) 1.85, CC(C1=C(O)CC(C)(C)CC1=O)C1C(=O)CC(C)(C)CC1=O (configuration not stated) 1.39, Nc1nc(Cl)cc(Oc2ccc(Cl)cc2)n1 0.924, Nc1ccc2c(c1)COC2=O 1.34, Nc1nc(N)c(-c2c(-c3ccc(Cl)s3)[nH]c3nc(N)[nH]c(=O)c23)c(=O)[nH]1 1.08, CC1Oc2cc([N+](=O)[O-])cc3c2C1=Cc1ccccc1O3 (configuration not stated) 0.766, O=S(=O)(c1ccc2c(c1)Cc1cc(S(=O)(=O)N3CCOCC3)ccc1-2)N1CCOCC1 1.21, O=S(=O)([O-])CCc1cc[n+](CC[n+]2ccccc2)cc1.[Br-] 1.38, COc1ccc2[nH]c3c(c2c1)CNCC3 1.07, CCOC(=O)CSc1nc(=O)c(NCC(=O)OC)n[nH]1 1.2, Cc1ccc[n+](CC[n+]2ccc(CCS(=O)(=O)[O-])cc2)c1.[Br-] 1.66, c1ccc(COc2ccc(C3Oc4ccccc4C4CC(c5ccccc5)=NN43)cc2)cc1 (configuration not stated) 0.855, c1ccc(-c2nc3ccccc3o2)cc1 1.04, C=CCC(=O)c1sc(NC)c(C#N)c1N 1.21, CCCc1[nH]nc2c1C1(CCSCC1)C(C#N)=C(N)O2 1.16, C/C=C1\CC[N+]2(C)CCC34C(=C(C=O)C1CC32)N(C)c1ccccc14.[Cl-] (configuration not stated) 1.21, CC1CCc2c(CO)csc2C1 (configuration not stated) 1.22, CCc1sc(C2C(C#N)=C(N)SC(N)=C2C#N)cc1Br 1.4, CC(C)(C)CC(C)(C)NC(=O)CSc1nnc(N)s1 1.22, Cc1cc(C(=O)Nc2c(C)noc2C)sc1C 1.09, Oc1ccc(/C=N/n2cnnc2)cc1O 1.05, Nc1cc(O)nn1C1CCCCC1 0.95, O=c1nc(O)c(Cl)cn1CC(O)CO (configuration not stated) 1.22, OCCC1CNCCN1Cc1ccco1 (configuration not stated) 1.21, CCC(C)(C)C(=O)Nc1nnc(C(C)C)s1 1.07, NC1CCCc2c1[nH]c1ccc(Br)cc21 (configuration not stated) 0.401, Cc1cccc2c1NC(C)(C)c1ss/c(=N/c3cc(Cl)ccc3Cl)c1-2 1, CCOC(=O)C1=C(C)NC(=S)NC1c1cc(C)sc1C (configuration not stated) 0.993, C=C(Cl)COC(=O)C1C2C=CC(C2)C1C(=O)O (configuration not stated) 1.07, COc1cc(Cl)c(S(=O)(=O)NCCOC23CC4CC(CC(C4)C2)C3)cc1Cl 1.1, Cc1nn2cn[nH]c2nc1=O 1.4, CCCc1[nH]nc2c1C1(CCOCC1)C(C#N)=C(N)O2 1.28, Clc1c2c(nc3ccccc13)CCCC2 1.02, Nc1sc2c(c1-c1nnn[nH]1)CCCC2 0.976, CC(C)(C)[Si](C)(C)N1C(=O)C[C@H]1C(=O)O 1.16, Nn1c(-n2cccn2)nn([C@@H]2CC(=O)[C@H]3OC[C@@H]2O3)c1=S 1.04, O=c1oc2ccccc2cc1C1=Nc2ccccc2SC(c2c3ccccc3cc3ccccc23)C1 (configuration not stated) 0.825, CS(=O)(=O)N1CCc2cc(NS(=O)(=O)c3ccc(F)cc3)ccc21 1.16, COCCNC(=O)N1CCOCC1 1.05, COc1cc(N)c(Br)cc1Br 1.15, Cn1c(=S)n(CCSc2nc3ccccc3[nH]2)c2ccccc21 1.58, Oc1nc(S)nc2[nH]cnc12 1.12, S=C(c1ccc2c(c1)OCCO2)N1CCOCC1 1.25, COc1cc2c(cc1O)C=NCC2 1.34, Cc1[nH]c(=O)c(C#N)c(C)c1CSCc1ccco1 1.1, CC(C)C(=O)Nc1ccn(C2CC(O)C(CO)O2)c(=O)n1 (configuration not stated) 1.14, O=[N+]([O-])c1ccc(/N=C\c2cc(Br)cc([N+](=O)[O-])c2O)c(O)c1 1.14, On1c2c(c3c4nonc4ccc31)CCCC2 0.562, CCn1c(S)nnc1-c1cc(C2CC2)nc2c1c(C1CC1)nn2C 1.24, CC(CCc1cc(C(C)(C)C)c(O)c(C(C)(C)C)c1)c1cc(C(C)(C)C)c(O)c(C(C)(C)C)c1 (configuration not stated) 1.03, Cn1cc(Cl)c(C(=O)NCCn2cc(Cl)cn2)n1 1.02, CN1CCN(C(=O)CCC(=O)O)CC1 1.34, CCCCN1C(=O)/C(=C\c2c(N3CCCC3)nc3c(C)cccn3c2=O)SC1=S 0.76, CCOC(=O)c1c(NC(C)=O)sc(SSc2sc(NC(C)=O)c(C(=O)OCC)c2C)c1C 1.14, Clc1ccc(C2=Nc3ccc4ccccc4c3C(c3ccc(Cl)cc3)N2)cc1 (configuration not stated) 0.949, O=C(NCCN1CCOCC1)C(=O)NCCN1CCOCC1 1.17, COC(=O)c1nc(Cl)c(Cl)c(N)c1Cl 0.863, O=C(Nc1scc(-c2cccs2)c1C(=O)O)c1cccs1 0.937, CC1n2c(nc3ccccc32)S(=O)(=O)C(c2ccccc2)C1(C)O (configuration not stated) 1.22, CSc1ccc(/C=N\N=C\c2ccc(SC)cc2)cc1 1.37, C1CC(C2CCNCC2)CCN1.Cl 1.01, N#Cc1c(SCC(=O)NC2CC2)sc2c(O)cc(=O)[nH]c12 1.18, C=CCON1C(=O)C2C3C=CC(O3)C2C1=O (configuration not stated) 1.03, O=C(O)c1nsc(Cl)c1Cl 1.33, Oc1cc2nccnc2cc1F 0.878, COc1ccc(OS(=O)(=O)C(F)(F)F)cc1 1.21, O=C1Nc2ccccc2/C1=N/NC(=S)S 1.27, CCSc1nnc(NC(=O)C2C3C=CC(O3)C2C(=O)O)s1 (configuration not stated) 1.14, Fc1ccc(NC(=S)C23CC4CC(CC(C4)C2)C3)cc1 1.23, N#Cc1cnoc1N1CCOCC1 1.11, C=CCNc1nc(N)c(C(C)=O)s1 0.932, c1ccc(C2=NN3C(C2)c2ccccc2OC3c2ccc3ccccc3c2)cc1 (configuration not stated) 1.13, NNC(=O)c1n[nH]c2c1CCC2 1.11
